About 6,100 (1.1%) of roughly 580,000 compounds were called active. This list was built around the results that the source calls inconclusive (neither active nor inactive); the mix of calls is not that of the screen. The call rests on the fitted dose curve; in most records, active means well fitted inhibition curve with a large enough effect; inconclusive means small, poorly fitted or top-dose-only effect, or another doubt; inactive means no such curve, though single readings can be large or run the other way. Potencies beside an inconclusive call are fits to weak or partial responses and may not hold up.
Each compound was assayed against Polyunsaturated fatty acid lipoxygenase ALOX12 (Homo sapiens) (UniProt P18054) (assay: Primary qHTS assay for inhibitors of human arachidonate 12S-lipoxygenase (ALOX12): Round 2). Details: purified 12hLO, xylenol orange hydroperoxide absorbance; activity change, negative = inhibition: at 108 µM (top of the series) unless noted.
Method in brief: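 Hydroperoxide product was detected by ferrous iron/xylenol orange as the 573 to 405 nm absorbance ratio. Arachidonic acid at 40 uM (final) was turned over for 30 min at room temperature by 150 nM human 12hLO, pH 7.0 Hepes buffer, after 15 min compound preincubation.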
On the % scale 0 is the no-effect control and ±100 the full control effect; potency means the concentration at half of the fitted maximal effect.

Amino acid sequences for entries named in this document (tags omitted). A change or cut given only in a name is not applied to a line headed by its entry.
UniProt P18054: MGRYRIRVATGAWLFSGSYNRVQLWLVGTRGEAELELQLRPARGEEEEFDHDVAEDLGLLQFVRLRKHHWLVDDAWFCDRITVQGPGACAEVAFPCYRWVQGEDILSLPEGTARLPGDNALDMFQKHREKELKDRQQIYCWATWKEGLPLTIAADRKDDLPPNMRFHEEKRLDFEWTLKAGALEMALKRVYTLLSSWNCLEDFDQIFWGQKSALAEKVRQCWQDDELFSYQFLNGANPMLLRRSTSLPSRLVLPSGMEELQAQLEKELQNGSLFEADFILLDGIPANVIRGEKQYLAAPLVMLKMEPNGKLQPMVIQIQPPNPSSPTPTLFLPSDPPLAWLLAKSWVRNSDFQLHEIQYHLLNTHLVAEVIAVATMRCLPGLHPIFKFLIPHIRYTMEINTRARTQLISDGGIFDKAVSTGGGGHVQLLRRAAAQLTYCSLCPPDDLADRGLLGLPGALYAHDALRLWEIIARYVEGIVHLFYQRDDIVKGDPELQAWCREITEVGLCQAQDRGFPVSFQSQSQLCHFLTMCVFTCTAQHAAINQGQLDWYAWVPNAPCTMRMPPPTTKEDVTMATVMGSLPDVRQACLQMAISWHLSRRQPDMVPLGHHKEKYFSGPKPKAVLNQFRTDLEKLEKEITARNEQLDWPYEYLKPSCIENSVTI

Row | SMILES | Potency | activity change, negative = inhibition
1 | Cc1cccc(N2C(=O)C(Cl)=C(Nc3c(C)n(C)n(-c4ccccc4)c3=O)C2=O)c1C | inconclusive: 15.8 µM [inhibitor, partial curve, poor fit] | 
2 | Cc1cc(=O)c(C(=O)O)nn1-c1ccccc1F | inconclusive: 56.2 µM [inhibitor, partial curve, poor fit] | 
3 | C/C(=N/Nc1ccc(Cl)c(Cl)c1)c1ccc(Cl)c(Cl)c1Cl | inconclusive: 2.82 µM [inhibitor, full curve, poor fit] | 
4 | CCCCCCCCCCCCSCCC(=O)O | inconclusive: 50.1 µM [inhibitor, partial curve, poor fit] | 
5 | Cc1cccc(-n2ncc3c(NCc4ccc5c(c4)OCO5)ncnc32)c1 | inconclusive: 79.4 µM [inhibitor, partial curve, poor fit] | 
6 | Cc1c(CCC(=O)NCc2ccc3c(c2)OCO3)c(=O)oc2c(C)c(O)ccc12 |  | inactive: -29.9%
7 | Cc1ccc2c(c1)N(CC(=O)NCc1cccc(Cl)c1)C(=O)c1cccnc1O2 |  | inactive: -6.03%
8 | CCOC(=O)c1cccn1C1C(=O)N(Cc2ccc(C(F)(F)F)cc2)c2ccc(F)cc21 (stereo unspecified) | inconclusive: 50.1 µM [inhibitor, partial curve, poor fit] | 
9 | O=C(NCc1ccc2c(c1)CCCO2)c1ccc(C2CCNC2)cc1 (stereo unspecified) |  | inactive: 11.9%
10 | COc1ccccc1Cn1c(CNS(=O)(=O)c2c(C)cc(C)cc2C)nc2cccnc21 |  | inactive: -9.07%
11 | O=C(CSc1nc2c([nH]c3ccccc32)c(=O)n1-c1ccccc1)Nc1cccc(C(F)(F)F)c1 | inconclusive: 70.8 µM [inhibitor, partial curve, poor fit] | 
12 | Cc1nc(C)c(C(=O)Nc2nc3c(C)cccc3s2)o1 | inconclusive: 39.8 µM [inhibitor, partial curve] | 
13 | COc1ccccc1NC(=O)CCSc1nnc(-c2ccncc2)o1 |  | inactive: -7.27%
14 | O=C(CN1CCN(Cc2ccc(Cl)cc2)C1=O)NCCCN1CCOCC1 |  | inactive: 4.24% [at 57.4 µM]
15 | COc1ccc(OC)c(C2c3[nH]c4ccccc4c3C[C@H]3C(=O)N(CCCOC(C)C)CC(=O)N23)c1 (stereo partly specified) | inconclusive: 56.2 µM [inhibitor, partial curve, poor fit] | 
16 | CCOC(=O)C1(C)CCCN1C(=O)c1cccs1 (stereo unspecified) | inconclusive: 100 µM [inhibitor, partial curve, poor fit] | 
17 | Cc1ccc(Cl)cc1NC(=O)c1cnn2c1NC(c1ccco1)CC2C(F)(F)F (stereo unspecified) |  | inactive: -27.6%
18 | CCc1ccc(CNC(=O)c2ccc3c(c2)c(C)c(C)n3Cc2ccccc2)cc1 |  | inactive: -17.9%
19 | Cc1ccc(C(=O)NC(=S)Nc2ccccc2N2CCCC2)cc1[N+](=O)[O-] | inconclusive: 10 µM [inhibitor, full curve, poor fit] | 
20 | Nc1ccc(O)c2c1C(=O)c1ccccc1C2=O | inconclusive: 35.5 µM [inhibitor, partial curve, poor fit] | 
21 | NC(=O)c1csc(C2OC(CO)C(O)C2O)n1 (stereo unspecified) | inconclusive: 100 µM [inhibitor, single point] | 
22 | Cc1cccc(CSCC(=O)N(C)C)c1 |  | inconclusive: -31.4% [inhibitor]

5 entries out of the list, sorted by formula weight, ascending.
Row | SMILES | Potency | activity change, negative = inhibition
20 | Nc1ccc(O)c2c1C(=O)c1ccccc1C2=O | inconclusive: 35.5 µM [inhibitor, partial curve, poor fit] | 
4 | CCCCCCCCCCCCSCCC(=O)O | inconclusive: 50.1 µM [inhibitor, partial curve, poor fit] | 
17 | Cc1ccc(Cl)cc1NC(=O)c1cnn2c1NC(c1ccco1)CC2C(F)(F)F (stereo unspecified) |  | inactive: -27.6%
8 | CCOC(=O)c1cccn1C1C(=O)N(Cc2ccc(C(F)(F)F)cc2)c2ccc(F)cc21 (stereo unspecified) | inconclusive: 50.1 µM [inhibitor, partial curve, poor fit] | 
11 | O=C(CSc1nc2c([nH]c3ccccc32)c(=O)n1-c1ccccc1)Nc1cccc(C(F)(F)F)c1 | inconclusive: 70.8 µM [inhibitor, partial curve, poor fit] | 

The listing continues.

Row | SMILES | Potency | activity change, negative = inhibition
23 | COC(=O)c1ccc(N/N=C/c2cc([N+](=O)[O-])cc(OC)c2O)cc1 | inconclusive: 35.5 µM [inhibitor, partial curve, poor fit] | 
24 | NCCC(=O)N1CCCC(N2CCN(c3ccccc3F)CC2)C1 (stereo unspecified) | inconclusive: 7.08 µM [inhibitor, full curve] | 
25 | COC(=O)[C@@]12C[C@@H](CC(=O)NCC34CC5CC(CC(C5)C3)C4)C(=O)N(Cc3ccccc3)C1=CCC(C)(C)C2 |  | inactive: -28.1%
26 | CCN(CC)CCNc1oc(-c2ccccc2)nc1S(=O)(=O)c1ccccc1 | inconclusive: 22.4 µM [inhibitor, single point] | 
27 | CCOC(=O)N1CCc2c(sc(NCc3cc(OC)ccc3OC)c2C(=O)Nc2cc(OC)ccc2OC)C1 | inconclusive: 2.24 µM [inhibitor, full curve, poor fit] | 
28 | CCC(C)NC(=O)Cn1c(=O)n(CCCCC(=O)NCc2ccco2)c(=O)c2ccccc21 (stereo unspecified) |  | inactive: 149%
29 | O=c1[nH]c2ccccc2nc1-c1nnnn1C1CCCC1 | inconclusive: 89.1 µM [inhibitor, single point] | 
30 | CCN1CCN(CC(=O)Nc2ccc(OC(F)(F)F)cc2)CC1 | active: 0.501 µM | 
31 | O=C(Cc1cccc2cccnc12)NC1CCS(=O)(=O)C1 (stereo unspecified) |  | inactive: 3.01%
32 | CC(=O)NC1=NC(=O)/C(=C/c2cc(C)n(-c3cccc(C(=O)O)c3)c2C)S1 | inconclusive: 7.94 µM [inhibitor, full curve] | 
33 | COc1cccc(NC(=O)CN(C)C(=O)CCCc2c[nH]c3ccccc23)c1 |  | inconclusive: -52.5% [inhibitor]
34 | C=CCNC(=O)NC(=O)CN(CC)c1ccc(C)cc1C |  | inactive: -53.7%
35 | O=C(Cc1cccc(F)c1)NCc1nnc2c(-c3nc(C4CC4)no3)cccn12 |  | inactive: 47.3%
36 | COc1cc(OC)c2c(-c3cccc(-c4ccc(C#N)cc4)c3)cc(=O)oc2c1 | inconclusive: 112 µM [inhibitor, single point] | 
37 | COc1ccc(OC)c(C2C(C(=O)c3ccc(C)o3)=C(O)C(=O)N2c2cc(C)on2)c1 (stereo unspecified) | inconclusive: 44.7 µM [inhibitor, partial curve, poor fit] | 
38 | Cc1ccc(NC(=O)N2CCc3ccccc32)cc1 |  | inactive: 0%
39 | COCCNC(=S)N/N=C(\C)c1cccc(OC)c1 | inconclusive: 50.1 µM [inhibitor, partial curve, poor fit] | 
40 | CCOC(=O)c1c(-c2ccc(C)cc2)csc1NC(=O)/C(C#N)=C/c1ccc(O)c(OC)c1 |  | inactive: -7.88%
41 | COCCCN1C(=O)C(=O)/C(=C(/O)c2ccc(S(=O)(=O)N3CCOCC3)cc2)C1c1ccc(F)cc1 (stereo unspecified) | inconclusive: 50.1 µM [inhibitor, partial curve, poor fit] | 
42 | Cn1c2ccccc2c(=O)c2c(=O)n(Cc3ccco3)c(COc3ccccc3)nc21 | inconclusive: 44.7 µM [inhibitor, partial curve, poor fit] | 
43 | O=C(CC1C(=O)NCCN1Cc1ccc(-c2ccccc2)cc1)NCc1ccncc1 (stereo unspecified) | inconclusive: 15.8 µM [inhibitor, partial curve, poor fit] | 
44 | O=C(C1CN(C(=O)c2nn(-c3ccccc3)c(=O)c3ccccc23)c2ccccc2O1)N1CCCCC1 (stereo unspecified) |  | inactive: 14.9%

Row | SMILES | Potency | activity change, negative = inhibition
45 | CCOC(=O)C1CCCN(Cc2c(Cl)cccc2Cl)C1 (stereo unspecified) | inconclusive: 1.12 µM [inhibitor, full curve, poor fit] | 
46 | O=C(O)c1cccc(N/N=C/c2ccc(-c3ccccc3)cc2)c1 | inconclusive: 44.7 µM [inhibitor, partial curve, poor fit] | 
47 | CCN(c1ccccc1)S(=O)(=O)c1ccc2ccccc2c1 | inconclusive: 56.2 µM [inhibitor, partial curve, poor fit] | 
48 | OC(COCCOc1ccc(Br)cc1)CN1CCN(Cc2ccccc2)CC1 (stereo unspecified) | inconclusive: 56.2 µM [inhibitor, partial curve, poor fit] | 
49 | Cc1ccc(CN2CC[C@H](c3nc4ccc(C(F)(F)F)cc4[nH]3)C2)cc1 | inconclusive: 50.1 µM [inhibitor, full curve] | 
50 | CC(Sc1ccc(S(=O)(=O)N(C)C)cn1)C(=O)NC1CCCC1 (stereo unspecified) | inconclusive: 79.4 µM [inhibitor, single point] | 
51 | CC(=O)c1cccc(-c2ccnc3c2CC(C(=O)Nc2ccc(Cl)c(C(F)(F)F)c2)O3)c1 (stereo unspecified) | inconclusive: 28.2 µM [inhibitor, single point] | 
52 | Cc1ccc2cccc(SCC(=O)N3CCOCC3)c2n1 | inconclusive: 89.1 µM [inhibitor, single point] | 
53 | CCn1c(SCC(=O)NCC(F)(F)F)nnc1-c1ccncc1 | inconclusive: 112 µM [inhibitor, partial curve, poor fit] | 
54 | CNc1nc(CC(C)=O)ns1 | inconclusive: 44.7 µM [inhibitor, single point] | 
55 | N#C/C(=C(/O)c1ccc(-c2cccc([N+](=O)[O-])c2)o1)c1nc2ccccc2s1 |  | inactive: -18.5%
56 | COc1ccc(-c2c(C)c3cc(OS(=O)(=O)c4ccc(F)cc4)ccc3oc2=O)cc1 |  | inactive: -12%
57 | CC1C(OC(=O)c2ccc(CS(C)(=O)=O)cc2)CC2CC1C2(C)C (stereo unspecified) | inconclusive: 44.7 µM [inhibitor, partial curve, poor fit] | 
58 | Cc1c[n+](CC(=O)c2ccccc2)c(C)cn1 | inconclusive: 2.51 µM [inhibitor, full curve] | 
59 | O=C(CN(C1CCCCC1)C1CCCCC1)N1CCc2ccccc2C1 | inconclusive: 0.398 µM [inhibitor, full curve, poor fit] | 
60 | O=C(/C=C/[C@H]1O[C@@H](n2ccc(=O)[nH]c2=O)[C@H](O)[C@@H]1O)NCc1ccco1 | inconclusive: 50.1 µM [inhibitor, partial curve, poor fit] | 
61 | c1ccc2c(CNc3ccc(CNc4ncn[nH]4)cc3)cccc2c1 |  | inactive: 473%
62 | COc1ccc(S(=O)(=O)Nc2nc(C(F)(F)F)cs2)cc1 | inconclusive: 39.8 µM [inhibitor, partial curve, poor fit] | 
63 | c1ccc(CN2CCC(=NNc3nc4ccccc4[nH]3)CC2)cc1 | inconclusive: 56.2 µM [inhibitor, partial curve, poor fit] | 
64 | Cc1ccc(-c2cccc(N)c2)cc1 | inconclusive: 0.562 µM [inhibitor, full curve, poor fit] | 
65 | COc1cc(SC)ccc1C(=O)Nc1ccccn1 |  | inactive: -10.4%
66 | O=C(Cc1cccc(NC(=O)C2CCN(C(=O)c3ccccc3)CC2)c1)Nc1cccc(C(=O)N2CCCC2)c1 | inconclusive: 126 µM [inhibitor, single point] | 

Reference: PubChem BioAssay AID1671190 (National Center for Advancing Translational Sciences (NCATS), 2021)
